# Measured values: the supplement of paper PMC8728848
# This is one part of the list.
# B1: pilr alpha (protein)
# chain: MLYGVTQPKHLSASMGGSVEIPFSFYYPWELATAPDVRISWRRGHFHRQSFYSTRPPSIHKDYVNRLFLNWTEGQKSGFLRISNLQKQDQSVYFCRVELDTRSSGRQQWQSIEGTKLSIT
# Columns and labels:
# Experiment in all cases: glycan array binding signal (z-score within array); higher = stronger binding
# Settings in all cases: glycan notation: IUPAC condensed, linker removed
# [1] = molecular target: Fuc(a1-2)Gal6S(b1-3)GlcNAc6S
# Outline: (§1)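 Glycan array binding is given as a within-array Z-score, which can be read as non-binding when negative. The arrays, 3228 of them, came from the Consortium for Functional Glycomics database and were retained only where the protein sequence was available. Z-scores were averaged across arrays of the same protein sequence at different concentrations or buffers and across linkers.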
# [2] = molecular target: Fuc(a1-2)Gal6S(b1-4)Glc
# Outline: as §1
# [3] = molecular target: Fuc(a1-2)Gal6S(b1-4)Glc6S
# Outline: as §1
# [4] = molecular target: Fuc(a1-2)[Gal(a1-3)]Gal
# Outline: as §1
# [5] = molecular target: Fuc(a1-2)[Gal(a1-3)]Gal(b1-3)GalNAc
# Outline: as §1
# [6] = molecular target: Fuc(a1-2)[Gal(a1-3)]Gal(b1-3)GalNAc(b1-3)Gal(a1-4)Gal(b1-4)Glc
# Outline: as §1
# [7] = molecular target: Fuc(a1-2)[Gal(a1-3)]Gal(b1-3)GlcNAc
# Outline: as §1
# [8] = molecular target: Fuc(a1-2)[Gal(a1-3)]Gal(b1-3)GlcNAc(b1-2)Man(a1-3)[Fuc(a1-2)[Gal(a1-3)]Gal(b1-3)GlcNAc(b1-2)Man(a1-6)]Man(b1-4)GlcNAc(b1-4)GlcNAc
# Outline: as §1
# [9] = molecular target: Fuc(a1-2)[Gal(a1-3)]Gal(b1-3)GlcNAc(b1-2)Man(a1-3)[Fuc(a1-2)[Gal(a1-3)]Gal(b1-3)GlcNAc(b1-2)Man(a1-6)]Man(b1-4)GlcNAc(b1-4)[Fuc(a1-6)]GlcNAc
# Outline: as §1
# [10] = molecular target: Fuc(a1-2)[Gal(a1-3)]Gal(b1-3)GlcNAc(b1-3)GalNAc
# Outline: as §1
# [11] = molecular target: Fuc(a1-2)[Gal(a1-3)]Gal(b1-3)GlcNAc(b1-6)GalNAc
# Outline: as §1
# [12] = molecular target: Fuc(a1-2)[Gal(a1-3)]Gal(b1-4)Glc
# Outline: as §1
# [13] = molecular target: Fuc(a1-2)[Gal(a1-3)]Gal(b1-4)GlcNAc
# Outline: as §1
# [14] = molecular target: Fuc(a1-2)[Gal(a1-3)]Gal(b1-4)GlcNAc(b1-2)Man
# Outline: as §1
# [15] = molecular target: Fuc(a1-2)[Gal(a1-3)]Gal(b1-4)GlcNAc(b1-2)Man(a1-3)[Fuc(a1-2)[Gal(a1-3)]Gal(b1-4)GlcNAc(b1-2)Man(a1-6)]Man(b1-4)GlcNAc(b1-4)GlcNAc
# Outline: as §1
# [16] = molecular target: Fuc(a1-2)[Gal(a1-3)]Gal(b1-4)GlcNAc(b1-2)Man(a1-3)[Fuc(a1-2)[Gal(a1-3)]Gal(b1-4)GlcNAc(b1-2)Man(a1-6)]Man(b1-4)GlcNAc(b1-4)[Fuc(a1-6)]GlcNAc
# Outline: as §1
# [17] = molecular target: Fuc(a1-2)[Gal(a1-3)]Gal(b1-4)GlcNAc(b1-3)GalNAc
# Outline: as §1
# [18] = molecular target: Fuc(a1-2)[Gal(a1-3)]Gal(b1-4)GlcNAc(b1-3)[Fuc(a1-2)[Gal(a1-3)]Gal(b1-4)GlcNAc(b1-6)]GalNAc
# Outline: as §1
# [19] = molecular target: Fuc(a1-2)[Gal(a1-3)]Gal(b1-4)GlcNAc(b1-6)GalNAc
# Outline: as §1
# [20] = molecular target: Fuc(a1-2)[Gal(a1-3)]Gal(b1-4)[Fuc(a1-3)]Glc
# Outline: as §1
# [21] = molecular target: Fuc(a1-2)[Gal(a1-3)]Gal(b1-4)[Fuc(a1-3)]GlcNAc
# Outline: as §1
# [22] = molecular target: Fuc(a1-2)[Gal(a1-3)]Gal(b1-4)[Fuc(a1-3)]GlcNAc(b1-3)GalNAc
# Outline: as §1
# [23] = molecular target: Fuc(a1-2)[Gal(a1-4)]Gal(b1-4)GlcNAc
# Outline: as §1
# [24] = molecular target: Fuc(a1-2)[GalNAc(a1-3)]Gal
# Outline: as §1
# [25] = molecular target: Fuc(a1-2)[GalNAc(a1-3)]Gal(b1-3)GalNAc(a1-3)[Fuc(a1-2)]Gal(b1-4)GlcNAc
# Outline: as §1
# [26] = molecular target: Fuc(a1-2)[GalNAc(a1-3)]Gal(b1-3)GalNAc(b1-3)Gal(a1-4)Gal(b1-4)Glc
# Outline: as §1
# [27] = molecular target: Fuc(a1-2)[GalNAc(a1-3)]Gal(b1-3)GlcNAc
# Outline: as §1
# [28] = molecular target: Fuc(a1-2)[GalNAc(a1-3)]Gal(b1-3)GlcNAc(b1-2)Man(a1-3)[Fuc(a1-2)[GalNAc(a1-3)]Gal(b1-3)GlcNAc(b1-2)Man(a1-6)]Man(b1-4)GlcNAc(b1-4)GlcNAc
# Outline: as §1
# [29] = molecular target: Fuc(a1-2)[GalNAc(a1-3)]Gal(b1-3)GlcNAc(b1-2)Man(a1-3)[Fuc(a1-2)[GalNAc(a1-3)]Gal(b1-3)GlcNAc(b1-2)Man(a1-6)]Man(b1-4)GlcNAc(b1-4)[Fuc(a1-6)]GlcNAc
# Outline: as §1
# [30] = molecular target: Fuc(a1-2)[GalNAc(a1-3)]Gal(b1-3)GlcNAc(b1-3)GalNAc
# Outline: as §1
# [31] = molecular target: Fuc(a1-2)[GalNAc(a1-3)]Gal(b1-3)GlcNAc(b1-6)GalNAc
# Outline: as §1
# [32] = molecular target: Fuc(a1-2)[GalNAc(a1-3)]Gal(b1-4)Glc
# Outline: as §1
# [33] = molecular target: Fuc(a1-2)[GalNAc(a1-3)]Gal(b1-4)GlcNAc
# Outline: as §1
# [34] = molecular target: Fuc(a1-2)[GalNAc(a1-3)]Gal(b1-4)GlcNAc(b1-2)Man
# Outline: as §1
# [35] = molecular target: Fuc(a1-2)[GalNAc(a1-3)]Gal(b1-4)GlcNAc(b1-2)Man(a1-3)[Fuc(a1-2)[GalNAc(a1-3)]Gal(b1-4)GlcNAc(b1-2)Man(a1-6)]Man(b1-4)GlcNAc(b1-4)GlcNAc
# Outline: as §1
# [36] = molecular target: Fuc(a1-2)[GalNAc(a1-3)]Gal(b1-4)GlcNAc(b1-2)Man(a1-3)[Fuc(a1-2)[GalNAc(a1-3)]Gal(b1-4)GlcNAc(b1-2)Man(a1-6)]Man(b1-4)GlcNAc(b1-4)[Fuc(a1-6)]GlcNAc
# Outline: as §1
# [37] = molecular target: Fuc(a1-2)[GalNAc(a1-3)]Gal(b1-4)GlcNAc(b1-3)Gal(b1-4)GlcNAc
# Outline: as §1
# [38] = molecular target: Fuc(a1-2)[GalNAc(a1-3)]Gal(b1-4)GlcNAc(b1-3)Gal(b1-4)GlcNAc(b1-3)Gal(b1-4)GlcNAc
# Outline: as §1
# [39] = molecular target: Fuc(a1-2)[GalNAc(a1-3)]Gal(b1-4)GlcNAc(b1-3)GalNAc
# Outline: as §1
# [40] = molecular target: Fuc(a1-2)[GalNAc(a1-3)]Gal(b1-4)GlcNAc(b1-3)[Fuc(a1-2)[GalNAc(a1-3)]Gal(b1-4)GlcNAc(b1-6)]GalNAc
# Outline: as §1
# [41] = molecular target: Fuc(a1-2)[GalNAc(a1-3)]Gal(b1-4)GlcNAc(b1-6)GalNAc
# Outline: as §1
# [42] = molecular target: Fuc(a1-2)[GalNAc(a1-3)]Gal(b1-4)[Fuc(a1-3)]GlcNAc
# Outline: as §1
# [43] = molecular target: Fuc(a1-2)[GalNAc(a1-3)]Gal(b1-4)[Fuc(a1-3)]GlcNAc(b1-3)GalNAc
# Outline: as §1
# [44] = molecular target: Fuc(a1-2)[GalNAc(a1-4)]Gal(b1-4)GlcNAc
# Outline: as §1
# [45] = molecular target: Fuc(a1-2)[GalNAc(b1-3)]Gal
# Outline: as §1
binder,measurement,setting,value
B1,glycan array binding signal (z-score),[1],-0.16
same,glycan array binding signal (z-score),[2],-0.519
same,glycan array binding signal (z-score),[3],0.033
same,glycan array binding signal (z-score),[4],1.5
same,glycan array binding signal (z-score),[5],0.531
same,glycan array binding signal (z-score),[6],0.344
same,glycan array binding signal (z-score),[7],0.165
same,glycan array binding signal (z-score),[8],-0.093
same,glycan array binding signal (z-score),[9],-0.464
same,glycan array binding signal (z-score),[10],-0.529
same,glycan array binding signal (z-score),[11],-0.796
same,glycan array binding signal (z-score),[12],-0.394
same,glycan array binding signal (z-score),[13],-0.848
same,glycan array binding signal (z-score),[14],0.092
same,glycan array binding signal (z-score),[15],-0.681
same,glycan array binding signal (z-score),[16],-0.349
same,glycan array binding signal (z-score),[17],-0.646
same,glycan array binding signal (z-score),[18],-0.015
same,glycan array binding signal (z-score),[19],-0.722
same,glycan array binding signal (z-score),[20],0.055
same,glycan array binding signal (z-score),[21],-0.462
same,glycan array binding signal (z-score),[22],-0.278
same,glycan array binding signal (z-score),[23],0.433
same,glycan array binding signal (z-score),[24],-0.087
same,glycan array binding signal (z-score),[25],-0.449
same,glycan array binding signal (z-score),[26],-0.261
same,glycan array binding signal (z-score),[27],0.551
same,glycan array binding signal (z-score),[28],-0.081
same,glycan array binding signal (z-score),[29],-0.608
same,glycan array binding signal (z-score),[30],-0.147
same,glycan array binding signal (z-score),[31],-0.309
same,glycan array binding signal (z-score),[32],0.839
same,glycan array binding signal (z-score),[33],-0.195
same,glycan array binding signal (z-score),[34],-0.251
same,glycan array binding signal (z-score),[35],0.043
same,glycan array binding signal (z-score),[36],-0.529
same,glycan array binding signal (z-score),[37],-0.543
same,glycan array binding signal (z-score),[38],0.261
same,glycan array binding signal (z-score),[39],-0.415
same,glycan array binding signal (z-score),[40],-0.94
same,glycan array binding signal (z-score),[41],-0.245
same,glycan array binding signal (z-score),[42],-0.358
same,glycan array binding signal (z-score),[43],6.68
same,glycan array binding signal (z-score),[44],0.018
same,glycan array binding signal (z-score),[45],-0.304
